The list shows a part of the results.

By UniProt entry, the sequences of proteins in these tests, tags left out. Where a name states a change or a piece, a line headed by the entry shows the natural chain unless it says otherwise.
UniProt Q9BRX8: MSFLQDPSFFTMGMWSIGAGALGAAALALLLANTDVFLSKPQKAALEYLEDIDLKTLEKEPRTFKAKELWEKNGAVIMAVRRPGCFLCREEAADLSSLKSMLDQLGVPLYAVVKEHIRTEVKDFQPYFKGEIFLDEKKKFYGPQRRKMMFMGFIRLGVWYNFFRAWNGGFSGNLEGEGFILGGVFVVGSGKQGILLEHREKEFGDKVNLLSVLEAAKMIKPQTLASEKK
UniProt Q92932: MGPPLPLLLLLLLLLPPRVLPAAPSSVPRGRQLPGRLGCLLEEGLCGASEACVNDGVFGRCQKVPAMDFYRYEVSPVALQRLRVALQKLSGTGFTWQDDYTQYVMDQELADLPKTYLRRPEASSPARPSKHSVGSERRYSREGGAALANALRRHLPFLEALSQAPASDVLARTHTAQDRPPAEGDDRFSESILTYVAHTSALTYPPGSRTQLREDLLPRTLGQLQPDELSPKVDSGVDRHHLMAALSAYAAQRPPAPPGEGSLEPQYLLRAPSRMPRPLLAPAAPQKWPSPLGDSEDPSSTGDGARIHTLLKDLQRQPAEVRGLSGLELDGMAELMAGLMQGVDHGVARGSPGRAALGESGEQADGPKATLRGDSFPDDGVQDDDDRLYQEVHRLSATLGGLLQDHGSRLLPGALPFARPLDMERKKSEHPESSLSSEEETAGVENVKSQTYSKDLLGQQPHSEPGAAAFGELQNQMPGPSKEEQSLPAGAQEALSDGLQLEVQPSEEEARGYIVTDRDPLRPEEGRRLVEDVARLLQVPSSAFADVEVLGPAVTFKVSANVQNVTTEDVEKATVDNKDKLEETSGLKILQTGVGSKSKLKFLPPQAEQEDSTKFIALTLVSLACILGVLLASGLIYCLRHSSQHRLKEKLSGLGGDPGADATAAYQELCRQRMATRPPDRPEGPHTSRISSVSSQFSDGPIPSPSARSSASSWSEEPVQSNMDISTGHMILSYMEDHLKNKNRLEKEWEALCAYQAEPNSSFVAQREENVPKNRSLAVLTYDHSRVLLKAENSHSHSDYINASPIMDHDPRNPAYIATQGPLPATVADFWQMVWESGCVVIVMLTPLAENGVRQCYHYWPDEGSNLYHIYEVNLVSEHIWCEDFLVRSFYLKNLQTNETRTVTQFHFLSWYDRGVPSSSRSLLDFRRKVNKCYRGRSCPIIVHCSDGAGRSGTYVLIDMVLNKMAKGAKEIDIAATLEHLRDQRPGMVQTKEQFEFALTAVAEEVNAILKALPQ
UniProt Q9P2W1: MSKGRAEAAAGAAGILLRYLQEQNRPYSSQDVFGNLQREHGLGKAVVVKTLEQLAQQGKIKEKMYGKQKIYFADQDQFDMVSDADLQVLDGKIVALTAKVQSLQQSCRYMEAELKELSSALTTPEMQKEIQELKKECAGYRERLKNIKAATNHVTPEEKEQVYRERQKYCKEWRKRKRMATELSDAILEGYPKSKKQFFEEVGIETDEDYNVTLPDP
UniProt P53801: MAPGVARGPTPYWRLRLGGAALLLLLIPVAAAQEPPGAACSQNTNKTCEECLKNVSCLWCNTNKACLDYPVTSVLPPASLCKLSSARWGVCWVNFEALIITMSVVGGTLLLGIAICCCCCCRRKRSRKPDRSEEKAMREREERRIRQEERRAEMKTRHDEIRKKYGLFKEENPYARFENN
UniProt O14818: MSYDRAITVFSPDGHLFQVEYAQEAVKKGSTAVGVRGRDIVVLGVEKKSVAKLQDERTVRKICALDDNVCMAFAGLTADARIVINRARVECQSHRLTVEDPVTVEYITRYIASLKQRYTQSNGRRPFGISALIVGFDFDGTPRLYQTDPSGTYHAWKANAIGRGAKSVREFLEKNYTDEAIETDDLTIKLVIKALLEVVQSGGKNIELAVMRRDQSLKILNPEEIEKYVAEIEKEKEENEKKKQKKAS
UniProt Q9NYI0: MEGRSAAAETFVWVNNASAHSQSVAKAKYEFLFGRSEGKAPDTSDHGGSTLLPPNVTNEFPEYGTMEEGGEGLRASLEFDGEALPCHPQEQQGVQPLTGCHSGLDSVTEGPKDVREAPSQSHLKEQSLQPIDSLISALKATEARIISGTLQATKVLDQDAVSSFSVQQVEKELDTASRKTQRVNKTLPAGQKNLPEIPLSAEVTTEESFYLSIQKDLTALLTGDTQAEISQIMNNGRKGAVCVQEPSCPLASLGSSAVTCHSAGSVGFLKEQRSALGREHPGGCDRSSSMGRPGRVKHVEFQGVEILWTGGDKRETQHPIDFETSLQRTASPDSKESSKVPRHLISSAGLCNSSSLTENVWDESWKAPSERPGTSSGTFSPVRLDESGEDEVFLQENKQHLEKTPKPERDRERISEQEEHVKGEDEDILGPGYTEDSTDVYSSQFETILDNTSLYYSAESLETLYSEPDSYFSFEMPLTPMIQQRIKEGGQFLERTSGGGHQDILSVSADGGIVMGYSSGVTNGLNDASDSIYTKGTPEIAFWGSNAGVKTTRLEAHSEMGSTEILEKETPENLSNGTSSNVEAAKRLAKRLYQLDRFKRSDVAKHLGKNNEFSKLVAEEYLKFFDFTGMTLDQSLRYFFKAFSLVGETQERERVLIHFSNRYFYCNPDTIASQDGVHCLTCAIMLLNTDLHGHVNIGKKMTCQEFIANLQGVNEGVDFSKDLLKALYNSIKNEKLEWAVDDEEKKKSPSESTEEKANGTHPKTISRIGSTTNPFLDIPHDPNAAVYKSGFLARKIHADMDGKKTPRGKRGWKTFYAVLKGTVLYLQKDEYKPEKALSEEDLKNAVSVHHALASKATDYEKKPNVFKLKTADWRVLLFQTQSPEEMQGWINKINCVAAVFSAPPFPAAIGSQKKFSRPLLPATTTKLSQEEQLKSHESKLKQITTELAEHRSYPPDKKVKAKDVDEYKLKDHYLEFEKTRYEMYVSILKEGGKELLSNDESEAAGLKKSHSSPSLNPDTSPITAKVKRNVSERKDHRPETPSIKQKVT
UniProt Q8WUY3: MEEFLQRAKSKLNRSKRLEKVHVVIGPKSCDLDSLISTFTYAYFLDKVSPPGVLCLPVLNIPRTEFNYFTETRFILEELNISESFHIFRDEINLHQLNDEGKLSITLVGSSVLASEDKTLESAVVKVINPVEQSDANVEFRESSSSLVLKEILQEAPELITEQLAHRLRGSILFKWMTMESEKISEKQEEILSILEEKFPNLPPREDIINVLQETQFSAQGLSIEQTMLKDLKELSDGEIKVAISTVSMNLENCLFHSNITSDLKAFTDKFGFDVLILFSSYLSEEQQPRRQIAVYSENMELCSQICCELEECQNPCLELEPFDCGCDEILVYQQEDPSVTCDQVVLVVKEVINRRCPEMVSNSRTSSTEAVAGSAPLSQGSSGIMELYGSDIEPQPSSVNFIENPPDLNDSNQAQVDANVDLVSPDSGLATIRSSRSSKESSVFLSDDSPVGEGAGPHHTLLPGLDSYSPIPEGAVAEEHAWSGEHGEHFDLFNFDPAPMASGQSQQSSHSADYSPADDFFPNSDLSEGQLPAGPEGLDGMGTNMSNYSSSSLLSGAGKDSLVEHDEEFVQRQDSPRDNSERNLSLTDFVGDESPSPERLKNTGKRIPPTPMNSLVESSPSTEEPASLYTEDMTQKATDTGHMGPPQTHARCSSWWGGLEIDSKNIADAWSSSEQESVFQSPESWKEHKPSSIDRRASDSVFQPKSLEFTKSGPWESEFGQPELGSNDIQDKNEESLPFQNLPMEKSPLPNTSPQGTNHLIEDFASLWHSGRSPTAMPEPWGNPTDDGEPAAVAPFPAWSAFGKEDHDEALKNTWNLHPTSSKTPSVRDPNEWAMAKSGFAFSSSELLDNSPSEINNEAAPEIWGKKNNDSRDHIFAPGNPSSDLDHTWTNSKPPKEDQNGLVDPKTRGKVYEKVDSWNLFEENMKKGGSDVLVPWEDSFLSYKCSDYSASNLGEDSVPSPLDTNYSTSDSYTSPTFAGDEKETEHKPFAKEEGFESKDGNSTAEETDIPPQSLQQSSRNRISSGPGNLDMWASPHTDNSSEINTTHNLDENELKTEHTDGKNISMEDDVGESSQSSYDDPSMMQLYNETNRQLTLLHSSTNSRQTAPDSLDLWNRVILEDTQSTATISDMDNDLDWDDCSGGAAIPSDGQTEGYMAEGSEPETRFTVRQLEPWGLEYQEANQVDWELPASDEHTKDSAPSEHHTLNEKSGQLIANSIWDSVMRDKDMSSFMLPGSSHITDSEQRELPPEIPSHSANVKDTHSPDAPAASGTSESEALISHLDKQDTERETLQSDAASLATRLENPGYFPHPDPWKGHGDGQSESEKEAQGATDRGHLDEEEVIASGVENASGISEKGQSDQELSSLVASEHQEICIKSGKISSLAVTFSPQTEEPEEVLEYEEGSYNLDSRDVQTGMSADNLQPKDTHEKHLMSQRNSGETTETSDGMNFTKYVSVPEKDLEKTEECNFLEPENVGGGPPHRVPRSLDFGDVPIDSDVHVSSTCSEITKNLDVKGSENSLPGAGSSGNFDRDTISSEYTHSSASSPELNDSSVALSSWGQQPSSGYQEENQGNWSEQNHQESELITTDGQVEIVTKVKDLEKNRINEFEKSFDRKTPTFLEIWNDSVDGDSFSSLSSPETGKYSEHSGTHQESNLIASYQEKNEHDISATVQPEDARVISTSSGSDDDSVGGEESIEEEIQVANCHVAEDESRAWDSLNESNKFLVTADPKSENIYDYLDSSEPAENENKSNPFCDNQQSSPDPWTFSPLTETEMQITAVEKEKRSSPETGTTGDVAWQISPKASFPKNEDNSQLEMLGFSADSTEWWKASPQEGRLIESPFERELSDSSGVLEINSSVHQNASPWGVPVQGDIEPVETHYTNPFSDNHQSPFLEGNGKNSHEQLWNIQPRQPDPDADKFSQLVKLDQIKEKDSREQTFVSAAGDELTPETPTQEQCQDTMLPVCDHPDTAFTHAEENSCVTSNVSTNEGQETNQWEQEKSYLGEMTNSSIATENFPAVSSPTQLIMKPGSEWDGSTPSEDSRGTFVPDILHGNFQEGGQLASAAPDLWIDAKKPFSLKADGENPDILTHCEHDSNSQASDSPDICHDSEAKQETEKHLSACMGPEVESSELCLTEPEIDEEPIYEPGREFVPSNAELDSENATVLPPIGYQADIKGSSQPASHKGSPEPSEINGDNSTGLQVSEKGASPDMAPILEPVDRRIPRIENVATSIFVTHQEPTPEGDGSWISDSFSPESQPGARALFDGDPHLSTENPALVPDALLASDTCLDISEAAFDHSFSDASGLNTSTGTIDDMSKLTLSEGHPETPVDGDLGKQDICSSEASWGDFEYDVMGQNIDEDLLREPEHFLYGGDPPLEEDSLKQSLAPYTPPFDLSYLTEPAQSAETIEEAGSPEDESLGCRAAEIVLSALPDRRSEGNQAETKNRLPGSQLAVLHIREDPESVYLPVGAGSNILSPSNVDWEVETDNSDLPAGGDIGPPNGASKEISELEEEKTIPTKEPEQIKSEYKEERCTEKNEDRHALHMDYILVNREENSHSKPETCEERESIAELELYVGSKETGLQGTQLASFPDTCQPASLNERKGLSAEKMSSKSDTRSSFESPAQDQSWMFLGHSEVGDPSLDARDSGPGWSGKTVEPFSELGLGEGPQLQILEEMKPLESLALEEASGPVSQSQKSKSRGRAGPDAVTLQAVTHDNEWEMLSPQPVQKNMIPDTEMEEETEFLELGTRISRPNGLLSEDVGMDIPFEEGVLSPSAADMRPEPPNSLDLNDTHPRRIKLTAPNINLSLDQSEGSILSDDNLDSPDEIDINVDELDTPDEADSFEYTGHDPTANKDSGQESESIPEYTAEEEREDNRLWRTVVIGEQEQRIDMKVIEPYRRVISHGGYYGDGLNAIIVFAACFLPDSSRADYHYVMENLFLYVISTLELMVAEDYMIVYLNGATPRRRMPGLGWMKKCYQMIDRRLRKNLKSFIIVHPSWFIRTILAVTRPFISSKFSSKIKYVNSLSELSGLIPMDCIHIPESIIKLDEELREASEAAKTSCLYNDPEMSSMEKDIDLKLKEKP
UniProt P40306: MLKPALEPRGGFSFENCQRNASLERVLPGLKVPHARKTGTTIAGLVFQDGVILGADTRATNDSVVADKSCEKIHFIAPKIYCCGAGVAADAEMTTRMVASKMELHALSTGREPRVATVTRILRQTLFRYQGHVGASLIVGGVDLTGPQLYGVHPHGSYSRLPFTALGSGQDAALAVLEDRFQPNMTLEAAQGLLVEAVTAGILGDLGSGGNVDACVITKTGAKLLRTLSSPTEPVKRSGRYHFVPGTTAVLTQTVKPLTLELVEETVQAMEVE
UniProt Q96I23: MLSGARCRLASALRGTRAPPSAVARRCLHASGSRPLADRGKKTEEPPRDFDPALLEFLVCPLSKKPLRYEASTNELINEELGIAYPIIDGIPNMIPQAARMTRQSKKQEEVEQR
UniProt Q03393: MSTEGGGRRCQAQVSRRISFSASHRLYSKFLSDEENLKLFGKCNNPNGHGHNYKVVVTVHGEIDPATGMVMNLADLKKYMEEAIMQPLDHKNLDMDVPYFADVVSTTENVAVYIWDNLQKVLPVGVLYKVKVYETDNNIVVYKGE

Compound in the assay: CCCc1cc(C)[nH]c(=O)c1CNC(=O)c1cc(-c2ccnc(N3CCN(C)CC3)c2)cc2c1cnn2C(C)C
The assay is described as follows: log2 fold change, soluble protein after heating vs DMSO (PISA); higher = thermal stabilisation; K562 cells, 10 uM, 30 min; active = over 0.2 and 3.5 SD of the protein, either way, in both replicates (recomputed). The method in brief: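 Quantification of soluble protein used TMTpro 16plex LC-MS/MS, with channel sums equalised. Samples were the supernatant after 21,000xg for 90 min of pooled aliquots from K562 cells (2×10^6 cells/mL) treated with 10 μM compound for 30 min, heated for 3 min over 48°C-58°C, and extracted in PBS with 0.5% NP-40 at 4°C. Values, from duplicates, describe thermal stability against control samples on a log2 fold-change scale.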
Regarding PSMC3 (UniProt E9PLG2), the log2 fold change was inactive: -0.08.
For PRXL2A (UniProt Q9BRX8), the log2 fold change is inactive: 0.207.
The value for PTPRN2 isoform 3 (UniProt Q92932) was inactive: -0.24.
Take PSMC3IP (UniProt Q9P2W1): the log2 fold change was inactive: 0.188.
In the case of PSMD4 (UniProt Q5VWC4), the log2 fold change is inactive: 0.005.
As for PTPN9 (UniProt P43378), the log2 fold change is inactive: 0.265.
The figure for PTTG1IP (UniProt P53801) is inactive: 0.008; for PSMA7 isoform 2 (UniProt O14818) it is inactive: -0.186.
As for PSIP1 (UniProt V9GYT7), the log2 fold change is inactive: 0.265.
The value for PVR (UniProt P15151) was inactive: -0.07; that for PSD3 (UniProt Q9NYI0) was inactive: 0.025; that for PRUNE2 isoform 3 (UniProt Q8WUY3) was inactive: 0.068.
The figure for PUF60 isoform 2 (UniProt Q9UHX1) is inactive: 0.123; for PSMB10 (UniProt P40306) it is inactive: 0.077.
The figure for PYURF (UniProt Q96I23) is inactive: 0.046; for PTS (UniProt Q03393) it is inactive: -0.07.

For the origin of these results see the supplement of paper PMC10849652.
